Two substances from patent US20160089448A1, “POLYMERIC PRODRUG WITH A SELF-IMMOLATIVE LINKER” (Ascendis Pharma GmbH, priority 2004, published 2016) can be followed below.

This data set is described as follows: MS analysis of buffer-released insulin. The conditions noted are these: insulin released in buffer pH 7.4, FIG. 11. The class given is physicochemical.

In the case of “Compound 9a: mono-pegylated insulin from 8a (NαA1-linker-insulin, pentanoyl masking group, no nucleophile) and maleimide-PEG5k; comparison, not part of invention”, the “modification of released insulin (mass spectrum)” value is recorded as “major side product”.

For the substance “9b: mono-pegylated insulin with ester-linked masking group, from 8b and maleimide-PEG5k [Compound 9b]”, the “modification of released insulin (mass spectrum)” value is recorded as “no modification”.
